PubChem BioAssay AID1508597 | Cure First, 2020

- Screen: 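Survival screen with siRNA in ovarian cancer cells derived from patients, with or without rucaparib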 (primary screen)
- Cells: human ovarian carcinoma lines grown from tumours: OCI-P5x (papillary serous) and OCI-C5x (clear cell)
- Reagents: siRNA pool against human genes, 1.25 pmol siRNA per well
- Duration: 72 h or 96 h, depending on the cell culture
- Conditions: rucaparib 20 µM (about IC30) or vehicle, present until read-out
- Rucaparib or vehicle: Vehicle
- Cell line: OCI-P5x (serous)
- Detection: 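Luminescent ATP-based viability assay read 72 or 96 h after transfection, depending on culture, given as normalised percent viability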
- Scale: viability, normalised: higher = more viable cells remaining
- Active means: 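a well counts as a hit if its normalised viability is under 80 percent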
- Calls: active = viability under 80%; inactive = viability 80% or more
This is an unselected part of the about 2,100 reagents, under one of the conditions tested. 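Calls flag viability under 80% in either arm, not effects specific to rucaparib; the reference for percent is not stated.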 Unmarked entries are inactive. Some reagents were tested in more than one well and are listed for each. Not given: the 100% reference.

With MAP2K7, technical replicate 1, the entry reads viability, normalised (%) = 75.3 (active).
MAP2K7, technical replicate 1 scored viability, normalised (%) = 68.2 (active).
For MAP2K7, technical replicate 2, the entry reads viability, normalised (%) = 58.4 (active).
With MAP2K7, technical replicate 2 the deposit lists viability, normalised (%) = 80.7.
For MAP2K7, technical replicate 3, the entry reads viability, normalised (%) = 39.8 (active).
With MAP2K7, technical replicate 3, the entry reads viability, normalised (%) = 80.7.

Laid out differently: 2 of the entries above
MAP2K7, technical replicate 3
- viability, normalised (%): 39.8 (active)

MAP2K7, technical replicate 3
- viability, normalised (%): 80.7

The results go on.
AK1, technical replicate 1 scored viability, normalised (%) = 107.
For AK1, technical replicate 2 the deposit lists viability, normalised (%) = 93.6.
For AK1, technical replicate 3, the values are viability, normalised (%) = 101.
BRD10, technical replicate 1 showed viability, normalised (%) = 63 (active).
With BRD10, technical replicate 2, the entry reads viability, normalised (%) = 51.1 (active).
For BRD10, technical replicate 3 the deposit lists viability, normalised (%) = 56.2 (active).
